Reference: patent US9265777B2, “Antiparasitic agent for fish and method of controlling proliferation of fish parasites” (NIPPON SUISAN KAISHA, LTD., priority 2009, dated 2016)
For at least one compound, name, drawing or mass did not settle the structure.

Columns and labels:
Cryptocaryon irritans [1] = experiment: Example 1: oral administration against parasitism of Cryptocaryon irritans on Pagrus major (1); details: 8 mg pyrimethamine/kg body weight/day orally for three days; three days after the exposure
Cryptocaryon irritans [2] = experiment: Examples 3 and 4: oral administration of single inhibitors and a combination against Cryptocaryon irritans on Pagrus major; type: in vivo; details: 60 mg/kg fish body weight/day for three days; 60 parasites per plot; P=<0.01
Source text: During the rearing period, 1.4 liters/min. of seawater was supplied. […] After exposure, seven fish each were moved into six 100-liter aquariums. During the rearing period, 1.4 liters/min. of seawater was supplied.

How did the “number of parasites (left gills, FIG. 1) relative to control plot” value (Cryptocaryon irritans [1]) turn out when `CCc1nc(N)nc(N)c1-c1ccc(Cl)cc1` [PRY, pyrimethamine] was run?
Its value is “tend to be large”.

What about the “growth rate of parasites (body length as percentage of control plot), difference to control plot” value (Cryptocaryon irritans [2]) of the same molecule?
Its value is “statistically significant difference”.
